Primary screen of a compound library

Amino acid sequences for entries named in this document (tags omitted). Residues count along the entry.
UniProt A4I591, 1-473: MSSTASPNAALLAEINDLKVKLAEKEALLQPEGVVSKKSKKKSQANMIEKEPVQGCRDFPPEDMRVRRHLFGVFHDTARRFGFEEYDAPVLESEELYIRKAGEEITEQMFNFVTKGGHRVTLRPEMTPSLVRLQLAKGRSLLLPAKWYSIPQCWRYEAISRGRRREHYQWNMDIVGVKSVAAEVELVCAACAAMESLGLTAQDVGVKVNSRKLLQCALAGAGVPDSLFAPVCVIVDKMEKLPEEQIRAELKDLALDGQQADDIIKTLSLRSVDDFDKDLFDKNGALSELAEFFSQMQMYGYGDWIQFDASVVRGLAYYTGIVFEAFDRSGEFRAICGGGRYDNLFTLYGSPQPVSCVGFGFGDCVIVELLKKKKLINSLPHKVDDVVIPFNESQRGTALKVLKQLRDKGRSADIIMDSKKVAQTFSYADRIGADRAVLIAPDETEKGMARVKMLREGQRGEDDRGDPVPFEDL
UniProt Q8IDJ8, 1-583: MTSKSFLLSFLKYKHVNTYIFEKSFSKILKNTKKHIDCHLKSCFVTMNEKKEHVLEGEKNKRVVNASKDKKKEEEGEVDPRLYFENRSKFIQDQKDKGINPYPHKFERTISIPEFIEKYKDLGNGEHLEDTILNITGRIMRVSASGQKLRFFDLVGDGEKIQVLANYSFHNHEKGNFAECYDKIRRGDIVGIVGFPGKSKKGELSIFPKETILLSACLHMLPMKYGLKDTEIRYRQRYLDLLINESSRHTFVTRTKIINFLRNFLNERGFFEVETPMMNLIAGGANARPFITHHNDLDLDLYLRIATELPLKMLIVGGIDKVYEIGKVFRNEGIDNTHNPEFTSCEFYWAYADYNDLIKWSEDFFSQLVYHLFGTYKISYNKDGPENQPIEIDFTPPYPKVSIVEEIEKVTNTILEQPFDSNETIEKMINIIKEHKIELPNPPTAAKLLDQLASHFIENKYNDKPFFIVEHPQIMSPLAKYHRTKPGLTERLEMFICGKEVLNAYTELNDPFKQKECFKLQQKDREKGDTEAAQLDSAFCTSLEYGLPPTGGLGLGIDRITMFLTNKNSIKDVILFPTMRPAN

Data taken from ChEMBL document CHEMBL3988442, “University of Dundee, Small-Polar-MMV Screening Library” (2021).

LiHisRS: 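Histidine-tRNA ligase, Leishmania infantum (UniProt A4I591). Enzyme assay of histidyl-tRNA synthetase; the read-out is not stated. Compounds at 30 µM. The record gives no direction; compounds that gave an IC50 in retests scored well above the rest, so higher reads as stronger inhibition. The assay is labelled LdHisRS but filed under L. infantum. Of about 69,000 compounds tested this way, about 410 (0.6%) reached 50% or more in at least one test.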
PfKRS1: 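Enzyme assay of the cytosolic lysyl-tRNA synthetase in 384-well plates, read by luminescence. Target: Lysine-tRNA ligase, Plasmodium falciparum 3D7 (UniProt Q8IDJ8). Compounds at 30 µM. Higher reads as stronger inhibition, judged from the few compounds that gave an IC50. Of about 69,000 compounds tested this way, about 49 (0.071%) reached 50% or more in at least one test.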

Values are the deposited “Percent Effect”, in %. How 0% and 100% were set is not recorded. Most values in the screen are low, and negative values occur. This is an unselected part of the compounds tested.

| structure | LiHisRS | PfKRS1 |
|---|---|---|
| `Cc1ccc2c(c1)Oc1ncccc1C(=O)N2` | 5.357 | 8.405 |
| `CC(Cn1cncn1)NC(=O)Nc1ccc(COC2CCCC2)cc1` (configuration not stated) | 10.45 | 2.122 |
| `CC(C)CN1C[C@H]2C[C@H](C(=O)Nc3cccnc3)[C@@H](C1)O2` | 6.015 | 4.226 |
| `N#Cc1cccnc1NCc1cccnc1N1CCCCC1` | 20 | 0.7131 |
| `Cc1cc(CN(C)C(=O)c2cccc(N3CCCC3=O)c2)no1` | -32.58 | 19.31 |
| `O=C(Nc1cc(CSCCO)ccn1)c1ccc(Cl)o1` | 22.4 | 3.282 |
| `O=C(Cn1cc(I)cn1)N1CCCCCC1` | 5.172 | 0.6031 |
| `Cn1cccc1C(=O)N1CCC(c2nnc(Cn3ccnc3)n2C)CC1` | 15.96 | 5.037 |
| `CC(NC(=O)NCCNc1ncccn1)c1cccs1` (configuration not stated) | 19.18 | 5.02 |
| `CNC(=O)c1ccc(C(=O)N2CCCCC2Cn2cc(C)cn2)cn1` (configuration not stated) | -2.778 | 0.06024 |
| `Cc1cc(C2CCNCC2)nc(-c2ccsc2)n1` | 8.511 | 0.7018 |
| `Cc1nc(NCc2ccc(C)o2)cc(C2CCNCC2)n1` | 7.317 | -0.7951 |
| `O=C(CN(C1=NCCCC1)c1ccccc1)c1ccc(OC(F)F)cc1` | 13.16 | 4.805 |
| `c1cc(CO[C@@H]2CC[C@H]3[C@H]2OCCN3Cc2ccoc2)ccn1` | 13.53 | 3.458 |
| `COc1ccc(CN(C(=O)CCC(C)C)c2cnn(C)c2)c(OC)c1` | 14.29 | 7.417 |
| `COCCN(C)C[C@@H]1CCC[C@@H]2CN(c3cc(OC)ncn3)C[C@@H]21` | 15.69 | 2.778 |
| `Cc1cccc(OCC(=O)N2CCN(C3CCOC3=O)CC2)c1C` (configuration not stated) | 13.16 | 0.4729 |
| `Cc1ccc(C)c(-n2ncc(NC(=O)NC3(C)CCOC3)c2C)c1` (configuration not stated) | -13.16 | -2.832 |
| `O=C1CN(CC2CC2)Cc2nc(NCc3ccccc3)sc21` | 5.714 | 7.643 |
| `COCC(=O)N(Cc1cccnc1)CC1CCCN(C2CCCCC2)C1` (configuration not stated) | 11.43 | 0.4641 |
| `CNc1cccc(CC2COCCN(C(=O)c3cccnc3)C2)n1` (configuration not stated) | 8.633 | 0.8827 |
| `Clc1ccc(-c2ccc(C3CNCCO3)nc2)cc1` (configuration not stated) | 15.94 | 4.748 |
| `Cc1ncc(CN2CCc3nc4cc(C(C)(C)C)nn4c(O)c3C2)n1C` | 5.674 | 0.6723 |
| `CCNC(=O)C1CCCN(C(=O)Nc2cc(C#N)ccc2OCC)C1` (configuration not stated) | 24.66 | 4.959 |
| `CCc1nc2n(n1)CCCC2NC(=O)Nc1ccc(SC)c(F)c1` (configuration not stated) | 17.54 | 1.397 |
| `CC1c2ncc(Cn3cncn3)n2CCN1C(=O)N(C)C` (configuration not stated) | 1.389 | 3.043 |
| `CCOCc1ccccc1NC(=O)NCC(C)(O)c1ccsc1` (configuration not stated) | 7.042 | 0.9765 |
| `Cc1c(C(=O)N2CCC3(CCC(=O)N(CCN(C)C)C3)CC2)ccn1C` | 20 | 4.331 |
| `Cc1nn(C)c2c(NCc3ccccn3)nc(C(C)C)nc12` | 17.7 | -0.3516 |
| `Cc1ccc(NC(=O)C2CSCN2C(=O)c2cccnc2)c(C)c1` (configuration not stated) | -0.9259 | -2.657 |
| `Cn1cc(CN2CCc3c(cnc(-c4ccccc4)c3C(=O)O)C2)cn1` | 24.79 | 3.882 |
| `CCc1nccn1C1CCCN(C(=O)c2ccn(-c3ccccc3)n2)C1` (configuration not stated) | 16.98 | -3.829 |
| `Cc1cc(C(F)(F)F)nn1CCNC(=O)C(C)n1ccnc1C(C)C` (configuration not stated) | 4.225 | -0.2663 |
| `COC[C@@H]1CC[C@H]2[C@H](CCN2S(=O)(=O)Cc2ccccc2)O1` | 18.42 | 1.962 |
| `O=C(Cn1cc(C(=O)O)ccc1=O)NCc1ccc(F)cc1Cl` | -3.333 | -3.351 |
| `O=C(Nc1cccnc1)N(Cc1ccccc1)C1CC1` | 8.036 | -1.487 |
| `c1ccc(CCc2noc(CN3CCC(N4CCSCC4)CC3)n2)cc1` | -5.479 | 0.8404 |
| `CCOc1ccc2[nH]c(=O)c(CN3CCCC3c3ccccn3)cc2c1` (configuration not stated) | 53.01 | 2.688 |
| `Cc1ccc(Oc2c(F)cccc2OC[C@@H](N)CC(C)C)cc1` | 31.43 | -0.3014 |
| `COc1ccc(N(C(=O)c2ccc(C)nc2)C(C)C)cc1F` | 12.68 | 1.997 |
| `Cc1cnc(C(=O)N2CCCC(n3cncn3)C2)cn1` (configuration not stated) | 10.53 | 1.791 |
| `O=C(CN1CCC(C(=O)c2cc(F)ccc2F)CC1)NC1CCCC1` | 0 | -3.494 |
| `Cc1cc(-c2nn(C)c(Cl)c2CN2CCN(C)C(C(=O)O)C2)no1` (configuration not stated) | 2.778 | 6.495 |
| `CCS(=O)(=O)N1CCC2(C1)C(=O)N(C)CCN2Cc1ccncc1` (configuration not stated) | 20.55 | 4.269 |
| `CC(C)n1cccc1C(=O)N1CC[C@@H](NC(=O)c2ccccn2)[C@H](O)C1` | 4.167 | 2.447 |
| `NC(=O)C1CN(c2ccc3cc(Br)ccc3n2)CCO1` (configuration not stated) | 9.877 | -1.568 |
| `COc1ccc(S(=O)(=O)C2CCN(C(=O)c3cc(C)cs3)CC2)cc1` | 9.333 | 6.334 |
| `CC(=O)N[C@@H]1CN(C(=O)c2cc(C)oc2C)C[C@H]1c1ccc(C)o1` | 18.75 | 4.846 |
| `CC(C)=CCC1(C(=O)O)CCCN(CCC(=O)NC2CC2)C1` (configuration not stated) | 2.439 | -3.91 |
| `CCc1nsc(NC2CCCn3nc(CC)nc32)n1` (configuration not stated) | 16.5 | -2.202 |
| `O=C(CCc1ccccc1)N1CC(n2cncn2)C1` | 10.71 | -0.3473 |
| `COCCn1ccc2ccc(NC(=O)NCc3noc(C)n3)cc21` | 9.524 | 1.967 |
| `Cc1n[nH]cc1CNCc1cccc(OCC(F)(F)F)c1` | 20.55 | 4.162 |
| `Cn1cc(CN2C[C@@H]3COC[C@@H](C(=O)N4CCCCO4)[C@@H]3C2)cn1` | 8.029 | -0.9414 |
| `Cc1cc(CN2CC[C@H]3OCC[C@@]3(C(=O)N3CCOCC3)C2)no1` | 9.434 | 2.396 |
| `c1cncc(CN2CCc3c(nnn3CC3CC3)C2COCC2CC2)c1` (configuration not stated) | 16.36 | 0.4082 |
| `O=C1CCCN1CC1CN(CC2CCOCC2)Cc2nccn2C1` (configuration not stated) | 15.04 | 0.9237 |
| `Cc1cc(C)nc(N2CCCC2c2cccnc2)n1` (configuration not stated) | 16.67 | 3.473 |
| `CCCC1CN(CC(C)C)C(=O)c2cccnc2O1` (configuration not stated) | -2.041 | 2.468 |
| `CC1CN(c2ccc(CNC(=O)c3ccn(C)c(=O)c3)cn2)CCO1` (configuration not stated) | 22.97 | 7.19 |
| `CNC(=O)C1CCCN(C(=O)c2cncs2)C1` (configuration not stated) | 9.79 | 1.39 |
| `CC(C)Cn1ncc(C(=O)O)c1C1CC1` | 17.7 | 1.36 |
| `COCCC(=O)N1CCOCC(Cc2ccc3c(ccn3C)c2)C1` (configuration not stated) | 8.451 | 4.769 |
| `Cc1nc(CCC(=O)N2Cc3cnc(-c4ccccc4)nc3C2)n[nH]1` | 14.71 | 15.43 |
| `CCOCC1CC2(CCN(C(=O)c3ccccc3F)CC2)CO1` (configuration not stated) | 15.69 | 4.464 |
| `CC(C)C(=O)NC1CCN(Cc2cccc3c2OCCO3)CC1` | 2.703 | 4.113 |
| `Cc1noc(C(C)C)c1C(=O)NCC(c1ccccc1)N(C)C` (configuration not stated) | 7.143 | -0.4562 |
| `COc1ccccc1CNC(=O)COc1ccc2c(c1)OCC2O` (configuration not stated) | 8.929 | 3.692 |
| `O=C(CCc1ccccc1)C1CCCN(Cc2cncn2C2CC2)C1` (configuration not stated) | 16.39 | 5.583 |
| `CCc1cnc2c(c1Nc1ccncc1)c(=O)n(C)c(=O)n2C` | 16.5 | -1.022 |
| `CCC(Nc1nc(C(F)(F)F)nc2ccccc12)C(=O)O` (configuration not stated) | 11.57 | 7.942 |